Reference: article PMC5083101
No constants are given. Whether binding was seen depends on the method and setting. Binding seen in cells or lysates may run through a third protein. Some binding calls cover weakened binding; strength is not graded here.

The chains behind the UniProt entries cited, without tags or fusion partners. Residues count along the entry.
UniProt P02769, residues 25-607: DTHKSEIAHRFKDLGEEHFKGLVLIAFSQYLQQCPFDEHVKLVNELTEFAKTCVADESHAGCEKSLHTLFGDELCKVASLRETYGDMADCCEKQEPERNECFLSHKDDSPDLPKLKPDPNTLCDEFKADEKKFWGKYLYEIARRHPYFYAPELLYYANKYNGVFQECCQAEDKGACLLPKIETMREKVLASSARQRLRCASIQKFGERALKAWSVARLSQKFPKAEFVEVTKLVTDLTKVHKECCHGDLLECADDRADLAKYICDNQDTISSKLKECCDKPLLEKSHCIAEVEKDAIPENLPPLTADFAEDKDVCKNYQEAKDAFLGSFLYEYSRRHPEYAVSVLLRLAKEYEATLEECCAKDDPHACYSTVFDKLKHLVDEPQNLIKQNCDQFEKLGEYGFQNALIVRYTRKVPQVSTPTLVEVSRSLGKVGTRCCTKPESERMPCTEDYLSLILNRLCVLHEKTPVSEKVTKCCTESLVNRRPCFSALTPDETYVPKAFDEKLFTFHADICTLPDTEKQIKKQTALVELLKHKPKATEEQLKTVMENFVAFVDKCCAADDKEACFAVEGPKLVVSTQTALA

T1: alpha-dystroglycan (rabbit skeletal muscle) (rabbit (endogenous in skeletal muscle)) (UniProt Q28685)
T1 sequence: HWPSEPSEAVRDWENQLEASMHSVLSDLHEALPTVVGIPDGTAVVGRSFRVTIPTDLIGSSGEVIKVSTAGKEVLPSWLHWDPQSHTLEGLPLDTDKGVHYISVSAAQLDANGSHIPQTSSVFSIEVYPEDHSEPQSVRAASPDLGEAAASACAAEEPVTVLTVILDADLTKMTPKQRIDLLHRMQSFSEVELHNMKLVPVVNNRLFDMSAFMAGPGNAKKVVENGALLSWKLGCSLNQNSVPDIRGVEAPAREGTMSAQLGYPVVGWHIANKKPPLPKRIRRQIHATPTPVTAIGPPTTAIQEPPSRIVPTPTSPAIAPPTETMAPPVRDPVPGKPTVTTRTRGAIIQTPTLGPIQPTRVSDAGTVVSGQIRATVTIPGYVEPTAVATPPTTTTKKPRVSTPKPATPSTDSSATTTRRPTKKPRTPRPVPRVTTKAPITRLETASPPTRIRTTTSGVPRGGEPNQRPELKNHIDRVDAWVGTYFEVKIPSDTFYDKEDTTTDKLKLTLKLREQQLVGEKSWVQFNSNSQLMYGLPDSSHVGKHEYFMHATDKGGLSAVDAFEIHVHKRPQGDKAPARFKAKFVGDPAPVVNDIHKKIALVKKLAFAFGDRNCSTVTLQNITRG


Experiments:
[1] = molecular target: bovine serum albumin (bovine) (UniProt P02769); experiment: pull-down; negative control of the immunoprecipitation: BSA coupled to CNBr-activated Sepharose; WGA-enriched, digitonin-solubilised rabbit skeletal muscle microsomes; 0.1% digitonin, 50 mM Tris-HCl pH 7.4, 150 mM NaCl; Western blot; only the target purified
[2] = molecular target: T1, alpha-dystroglycan (rabbit skeletal muscle) (rabbit (endogenous in skeletal muscle)); experiment: co-IP; anti-α-DG antibody IIH6 coupled to CNBr-activated Sepharose; WGA-enriched, digitonin-solubilised rabbit skeletal muscle microsomes; 0.1% digitonin, 50 mM Tris-HCl pH 7.4, 150 mM NaCl; eluted in 0.1 M triethylamine pH 11.5; Western blot

| Binder | binding [1] | binding [2] |
| --- | --- | --- |
| alpha-dystroglycan (rabbit skeletal muscle) (protein, UniProt Q28685 30-653) HWPSEPSEAVRDWENQLEASMHSVLSDLHEALPTVVGIPDGTAVVGRSFRVTIPTDLIGSSGEVIKVSTAGKEVLPSWLHWDPQSHTLEGLPLDTDKGVHYISVSAAQLDANGSHIPQTSSVFSIEVYPEDHSEPQSVRAASPDLGEAAASACAAEEPVTVLTVILDADLTKMTPKQRIDLLHRMQSFSEVELHNMKLVPVVNNRLFDMSAFMAGPGNAKKVVENGALLSWKLGCSLNQNSVPDIRGVEAPAREGTMSAQLGYPVVGWHIANKKPPLPKRIRRQIHATPTPVTAIGPPTTAIQEPPSRIVPTPTSPAIAPPTETMAPPVRDPVPGKPTVTTRTRGAIIQTPTLGPIQPTRVSDAGTVVSGQIRATVTIPGYVEPTAVATPPTTTTKKPRVSTPKPATPSTDSSATTTRRPTKKPRTPRPVPRVTTKAPITRLETASPPTRIRTTTSGVPRGGEPNQRPELKNHIDRVDAWVGTYFEVKIPSDTFYDKEDTTTDKLKLTLKLREQQLVGEKSWVQFNSNSQLMYGLPDSSHVGKHEYFMHATDKGGLSAVDAFEIHVHKRPQGDKAPARFKAKFVGDPAPVVNDIHKKIALVKKLAFAFGDRNCSTVTLQNITRG | no binding |  |
| beta-sarcoglycan (rabbit skeletal muscle) (protein, UniProt Q28635 1-318) MAAAAAAAAEQQSSNGPVKKSMREKAVERRNVNKEHNSNFKAGYIPIDEDRLHKTGLRGRKGNLAICVIVLLFLLAVINLIITLVIWAVIRIGPNGCDSMEFHESGLLRFKQVSDMGVIHPLYKSTVGGRRNENLVITGNNQPIVFQQGTTKLSVEKNKTSITSDIGMQFFDPRTQNILFSTDYETHEFHLPSGVKSLNVQKASTERITSNATSDLNIKVDGRAIVRGNEGVFIMGKTIEFHMGGNMELKAENSIILNGTVMVSTTRLPSSSSADQLGGGDWVRYKLCMCADGTLFKVQVTGQNVGCQVSDNPCGNTH | no binding |  |
| alpha-sarcoglycan (rabbit skeletal muscle) (protein, UniProt Q28686 25-387) QQTTLYPLVGRVFVHTLEPASFLHLPEHAAPATIPVTYHAHLQGHPDLPRWLRYTQRSPHHPGFLYGAATPEDRGRQVIEVTAYNRDSFDTAGQSLVLLIRDPEGSPLPYQTEFLVRSHDVEEVLPPTPASHFLTALAGLWEPGELKLLNITSALDRGGRVPLPIGGQKEGVYIKVGSASPFSTCLKMVASPDSHARCARGQPPLLSCYDTLAPHFRVDWCNVSLVDTSVPEPVDEVPTPGDGILEHDPFFCPPTEATARDFLADALVTLLVPLLVALLLALLLAYIMCCRREGRLKRDLATSDIQMVHHCTIHENTEELRQMAASREVPRPLFPLPMFNVRTGERMPPRVDSAQVPLILDQH | no binding | binds |

The next lines start with the values.

| binding [1] | binding [2] | Binder |
| --- | --- | --- |
| no binding |  | delta-sarcoglycan (rabbit skeletal muscle) (protein, UniProt G1SGL0 1-324) MYRQQPAISLHQLIFPFPFSQQFNGSASLLPCLFQMPQEQYTHHRSTMPSAEGPQVYKVGIYGWRKRCLYFFVLLLMILILVNLAMTIWILKVMNFTIDGMGNLRITEKGLKLEGDSEFLQPLYAKEIQSRPGNALYFKSARNVTVNILNDQTKVLTQLITGPKAVEAYGKKFEVKTVSGKLLFSADDNEVVVGAERLRVLGAEGTVFPKSIETPNVRADPFKELRLESPTRALVMEAPKGVEINAEAGNMEATCRTELRLESKDGEIKLDAAKIKLPRLPHGSYTPTGTRQKVFEICVCANGRLFLSQAGTGSTCQINTSVCL |
| no binding |  | beta-dystroglycan (rabbit skeletal muscle) (protein, UniProt Q28685 654-895) SIVVEWTNNTLPLEPCPKEQITGLSRRIAEDNGQPRPAFTNALEPDFKATSIAITGSGSCRHLQFIPVAPPGIPSSVTPPTEVPDRDPEKSSEDDVYLHTVIPAVVVAAILLIAGIIAMICYRKKRKGKLTLEDQATFIKKGVPIIFADELDDSKPPPSSSMPLILQEEKAPLPPPEYPSQSVPETTPLNQDTVGEYTPLRDEDPNAPPYQPPPPFTAPMEGKGSRPKNMTPYRSPPPYVPP |
